PubChem BioAssay AID1671195, Yale University – 2021
Screen: 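Knockdowns that increase or decrease uptake of fluorescent LDL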 (primary screen). Cell system: human Huh7 hepatoma cells. Knock-down reagent: siRNA pool against human genes, 18 nM. Duration: about 2 to 2.5 days of knockdown, then 8 h LDL uptake. Conditions: DiI-labelled LDL at 30 µg/ml for 8 h, in lipoprotein-deficient serum medium. Measurement: 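Fluorescent LDL signal imaged in cells, scaled to the plate median, robust z-score for each replicate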. Reading the numbers: robust z-score: higher = more LDL uptake after knockdown. Call rule: 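Active when two or more replicates show a robust z-score above 2 or below -2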.
In all, the deposit lists about 22,000 reagents; shown is an unselected part. About 1,510 of all reagents (6.9%) were called active. 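Active includes knockdowns raising or lowering LDL uptake; positive z-scores mean more uptake, negative mean less.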

no.	gene symbol	robust z-score, replicate 1	robust z-score, replicate 2	robust z-score, replicate 3	outcome
1	TCL1A	-1.53	-0.363	0.0707	inactive
2	LOC387927 (retired record)	-0.14	-0.393	-0.579	inactive
3	ANAPC1P2	0.66	0.461	0.179	inactive
4	PSMC3IP	-1.03	-0.0344	-1.95	inactive
5	ZNF527	-1.18	-1.42	-1.4	inactive
6	SMURF2	-0.308	-0.414	-1.1	inactive
7	CD19	0.284	-0.816	0.404	inactive
8	LOC728148	-0.837	-1.59	-1.35	inactive
9	LOC390614	0.0839	0.169	-0.634	inactive
10	TAB2	-1.23	-1.08	-0.448	inactive
11	ZNF35	-0.713	-0.968	-0.761	inactive
12	MRPL38	-0.726	-1.31	-1.04	inactive
13	SP3	-0.189	-0.552	-0.918	inactive
14	DDAH2	-0.76	-1.15	-0.938	inactive
15	ADAM22	-0.111	-0.764	-0.286	inactive
16	COL22A1	0.188	0.48	0.591	inactive
17	C22orf39	-0.252	-0.282	-1.22	inactive
18	LOC441503 (retired record)	0.199	0.158	0.258	inactive
19	XPC	-1.41	-1.04	-0.963	inactive
20	LOC105378085	-0.555	-2.06	-1.86	inactive
21	SFT2D2	-1.63	-1.49	-1.63	inactive
22	LINC02911	0.487	0.273	0.268	inactive
23	LOC391014 (retired record)	0.892	0.751	0.634	inactive
24	FLJ31183 (retired record)	0.559	0.18	0.322	inactive
25	NOA1	0.342	0.915	1.28	inactive
26	LOC162835 (retired record)	-0.277	0.245	-0.216	inactive
27	ZSCAN22	0.0269	-0.175	-0.173	inactive
28	IER5	2.35	1.82	2	active

Called active, of those listed so far:
gene symbol	robust z-score, replicate 1	robust z-score, replicate 2	robust z-score, replicate 3	outcome
IER5	2.35	1.82	2	active
